Measurements published in patent US12351586B2 (priority 2020, dated 2025).
Like-named read-outs stand apart in the source and are kept apart here.

By UniProt entry, the sequences of proteins in these tests, tags left out. Where a name states a change or a piece, a line headed by the entry shows the natural chain unless it says otherwise.
UniProt Q12809: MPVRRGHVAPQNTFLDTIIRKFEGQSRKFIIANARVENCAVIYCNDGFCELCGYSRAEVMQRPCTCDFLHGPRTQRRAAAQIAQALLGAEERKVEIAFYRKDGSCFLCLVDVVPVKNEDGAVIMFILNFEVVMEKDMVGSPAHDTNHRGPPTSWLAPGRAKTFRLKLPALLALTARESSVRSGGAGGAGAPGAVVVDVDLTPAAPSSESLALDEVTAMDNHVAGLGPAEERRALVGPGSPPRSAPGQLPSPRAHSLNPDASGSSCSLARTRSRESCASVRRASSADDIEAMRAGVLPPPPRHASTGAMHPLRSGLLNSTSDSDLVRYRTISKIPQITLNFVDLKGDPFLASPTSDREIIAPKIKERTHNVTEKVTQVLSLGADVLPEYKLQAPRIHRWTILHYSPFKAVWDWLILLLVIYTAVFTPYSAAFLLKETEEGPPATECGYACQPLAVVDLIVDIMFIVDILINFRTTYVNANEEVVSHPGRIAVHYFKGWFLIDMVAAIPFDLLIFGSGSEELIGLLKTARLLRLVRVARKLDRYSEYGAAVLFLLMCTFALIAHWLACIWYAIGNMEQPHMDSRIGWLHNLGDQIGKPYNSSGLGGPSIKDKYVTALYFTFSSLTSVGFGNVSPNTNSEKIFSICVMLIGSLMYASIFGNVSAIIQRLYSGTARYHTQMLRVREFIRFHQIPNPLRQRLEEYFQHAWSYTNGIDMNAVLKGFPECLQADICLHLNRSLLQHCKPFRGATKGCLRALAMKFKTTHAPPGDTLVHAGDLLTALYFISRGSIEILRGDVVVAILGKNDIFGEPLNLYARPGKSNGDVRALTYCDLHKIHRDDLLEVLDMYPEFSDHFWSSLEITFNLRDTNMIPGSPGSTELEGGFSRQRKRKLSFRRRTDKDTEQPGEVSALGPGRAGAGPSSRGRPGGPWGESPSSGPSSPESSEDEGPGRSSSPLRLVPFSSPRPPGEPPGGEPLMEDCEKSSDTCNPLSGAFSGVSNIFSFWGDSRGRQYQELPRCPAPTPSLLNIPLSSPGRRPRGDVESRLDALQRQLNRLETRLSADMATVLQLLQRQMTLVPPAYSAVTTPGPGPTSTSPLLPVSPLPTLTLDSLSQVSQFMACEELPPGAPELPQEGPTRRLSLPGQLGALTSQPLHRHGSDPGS

Experiments:
hERG potassium channel [1] = target: T1, hERG potassium channel (Homo sapiens, UniProt Q12809); assay: cell-based
[2] = rat
hERG potassium channel [3] = target: T1, hERG potassium channel; details: cited from earlier work

`Cc1cc(/C=C/C#N)cc(C)c1Oc1nc(NC2CCN(Cc3ccc(S(N)(=O)=O)cc3)CC2)nc2sccc12` [DK6-1] gave an IC50 (hERG potassium channel [1]) of 980 nM, a CL ([2]; iv 2 mg/kg) of 38.3 ± 6.7 mL/min/kg and a Cmax ([2]; iv 2 mg/kg) of 1713 ± 399 ng/mL. The T1/2 ([2]; iv 2 mg/kg) was 2.0 ± 0.4 h, the Cmax ([2]; po 20 mg/kg) was 614 ± 249 ng/mL and the T1/2 ([2]; po 20 mg/kg) was 2.8 ± 0.3 h.
For `Cc1cc(/C=C/C#N)cc(C)c1Oc1nc(NC2CCN(Cc3ccc(S(N)(=O)=O)cc3)CC2)nc2ccsc12` [25a], the IC50 (hERG potassium channel [3]) is given as 186 nM.
